# In PMC7819943, “Rice protein-binding microarrays: a tool to detect cis-acting elements near promoter regions in rice”:
# Amino acid sequences for entries named in this document (tags omitted).
# UniProt Q0JBA9, entry or part of it: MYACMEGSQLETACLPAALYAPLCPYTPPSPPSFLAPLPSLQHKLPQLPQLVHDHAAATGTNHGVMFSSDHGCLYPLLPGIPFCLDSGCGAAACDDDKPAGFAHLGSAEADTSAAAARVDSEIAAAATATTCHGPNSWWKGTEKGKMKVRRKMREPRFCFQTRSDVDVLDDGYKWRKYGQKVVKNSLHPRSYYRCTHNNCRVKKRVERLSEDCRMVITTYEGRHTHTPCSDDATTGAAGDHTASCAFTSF
# Some of the results follow.
# Molecular target: OsWRKY34 (Oryza sativa, UniProt Q0JBA9 1-250)
# Assay: protein-binding microarray (RPBM); PBS, 2% BSA, 51.3 ng/ul salmon testes DNA, 50 uM zinc acetate, 200 nM TF, 25 C, 1 h; high values mean tight binding
# Settings: protein: recombinant; tags: N-terminal polyhistidine and DsRed monomer fusion (pET32a); label: CyDye5-dUTP incorporated in the synthesized complementary strand; 3' TTTTT single-stranded linker to array surface; dsDNA, one strand shown
# Method in brief: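 Using Ni–NTA, transcription factors fused N-terminally to polyhistidine and DsRed were purified after expression in E. coli BL21-CodonPlus. These were incubated at 200 nM with a blocked, double-stranded custom Agilent array for 1 h at 25 °C in a buffer containing 50 µM zinc acetate, and the array was washed. The binding signal is per-feature fluorescence intensity (arbitrary units) on an Axon 4000B scanner.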
row,Sequence,binding signal
1,CCAGCCTCGCCACCTCGCCCATGCTTATCGCTCTCTTCCCCGGAGTCACCTAGTGCAG,9200 fluorescence intensity (a.u.)
2,TCCTCCACTCCACCACCCACCCGCCCGGCCGAACCAGCCACGGAGTCACCTAGTGCAG,8070 fluorescence intensity (a.u.)
3,CACTGATCGTCCTTGACTTATCTATTTGTATTAAACTTTTCGGAGTCACCTAGTGCAG,8540 fluorescence intensity (a.u.)
4,GAACGTGTCATCCCACCTATCCTACATATTTAAAGGCCACCGGAGTCACCTAGTGCAG,9100 fluorescence intensity (a.u.)
5,TGTCTTTCTATTATCCCTTATATATACTCTTGTAAGCCGTCGGAGTCACCTAGTGCAG,8840 fluorescence intensity (a.u.)
6,TCCATTGTTTTAGCTATATATGCTCTTGCTGCAAGTTACCCGGAGTCACCTAGTGCAG,8540 fluorescence intensity (a.u.)
7,ATATTTTTTGTTTGCTAATTTCAGATTATTGATTCAGTATCGGAGTCACCTAGTGCAG,8110 fluorescence intensity (a.u.)
8,ACGTCGCTGTAGCTTCTCTCCATCCATCCATCGAAATCTCCGGAGTCACCTAGTGCAG,8820 fluorescence intensity (a.u.)
9,AATTGTTTTATGCCAGAGCCATAATTTTATCCTTTCTTTTCGGAGTCACCTAGTGCAG,9000 fluorescence intensity (a.u.)
10,GTGTTCATTGATATTGCTTACTTCACTGTTTGTGACGCTACGGAGTCACCTAGTGCAG,11600 fluorescence intensity (a.u.)
11,TGCACTATCACTTCATTTGTAGTTTGCACAGTTTGTGTTTCGGAGTCACCTAGTGCAG,9100 fluorescence intensity (a.u.)
12,GTCCACTGTGCAGCTCCCGTGCAGGCGTTCCGCTTTGATGCGGAGTCACCTAGTGCAG,9380 fluorescence intensity (a.u.)
13,TCCTACAGTACGCATTCCCACCGCACCGCCATTCGATCTGCGGAGTCACCTAGTGCAG,8550 fluorescence intensity (a.u.)
14,GAACTGGTCAGGGAAAATATCCTCCACTTTTGGTTCGCTCCGGAGTCACCTAGTGCAG,8190 fluorescence intensity (a.u.)
15,TTTGGTGGCATGGGTGGGGTCTCATCACCGTGGAGTTATTCGGAGTCACCTAGTGCAG,10100 fluorescence intensity (a.u.)
16,CCATCCTCGTAGCCAGCGTTGACCGGGCCCGTGGCGGTCACGGAGTCACCTAGTGCAG,14600 fluorescence intensity (a.u.)
17,TGTAACTGCACCAATTACTCCTGTTTTACTCCTTATTAATCGGAGTCACCTAGTGCAG,9130 fluorescence intensity (a.u.)
18,CATTGGGAGGCGGGCTATGTACAAACTGGAGATCTCACATCGGAGTCACCTAGTGCAG,9410 fluorescence intensity (a.u.)
19,CCTTTGCTGCTAATTGTACATGGTTATGGTATGGTATGTTCGGAGTCACCTAGTGCAG,8030 fluorescence intensity (a.u.)
20,ATCATACGCTAATAGCTTTTTGTTTTTCGTGACCTTACTTCGGAGTCACCTAGTGCAG,11800 fluorescence intensity (a.u.)
21,CTACTACTCTACTAGTCCTACCCCTACCCTACCCTACGGCCGGAGTCACCTAGTGCAG,8280 fluorescence intensity (a.u.)

# Random excerpt: 2 entries already listed.
row,Sequence,binding signal
10,GTGTTCATTGATATTGCTTACTTCACTGTTTGTGACGCTACGGAGTCACCTAGTGCAG,11600 fluorescence intensity (a.u.)
11,TGCACTATCACTTCATTTGTAGTTTGCACAGTTTGTGTTTCGGAGTCACCTAGTGCAG,9100 fluorescence intensity (a.u.)

# (next part)

row,Sequence,binding signal
1,GACATGAACTCCGTGTACCTTTATTTTTGCTTGTGAACATCGGAGTCACCTAGTGCAG,13500 fluorescence intensity (a.u.)
2,GTGGCTGGCGTCTCCCGTCTACTACCGTATTTCTCCTTTCCGGAGTCACCTAGTGCAG,9810 fluorescence intensity (a.u.)
3,CAGCGACTATAAATACGGCCTCGACTCCGGACACCTTCTTCGGAGTCACCTAGTGCAG,8480 fluorescence intensity (a.u.)
4,GAAGTACAACCCAACGCACACCTTTTCAGTTGTATTAAGACGGAGTCACCTAGTGCAG,8110 fluorescence intensity (a.u.)
5,GAGAGGATGGAGGTGGATGAGGGAGAGGGGCGGGAGACCGCGGAGTCACCTAGTGCAG,9460 fluorescence intensity (a.u.)
6,AGATCACAAACATGAAATCCACTATTGTCTATCTCAACATCGGAGTCACCTAGTGCAG,9210 fluorescence intensity (a.u.)
7,GGATGGGCATGGAGGAGGTGCAGTGAGTGGAGCTGGAGGACGGAGTCACCTAGTGCAG,8730 fluorescence intensity (a.u.)
8,GACTGCTCTCTCCGGCCTTCGACGAGCATTCCTGCCGTTCCGGAGTCACCTAGTGCAG,9070 fluorescence intensity (a.u.)
9,CGTACCGCTCCCATCCACGGAAACCGCATGCGCCATCATCCGGAGTCACCTAGTGCAG,8410 fluorescence intensity (a.u.)
10,TTATGAGGGTAAGTTTGTATTTGTCATATTTGGGTTGCTACGGAGTCACCTAGTGCAG,8110 fluorescence intensity (a.u.)
11,TGCTGTTACGCTCTCTTGAGTGTGGTTCTATTGCTTTCGTCGGAGTCACCTAGTGCAG,8900 fluorescence intensity (a.u.)
12,CCTGCTCCGCCGTTCTCCTCGTCGCCCAATGCTGCGGCGCCGGAGTCACCTAGTGCAG,10300 fluorescence intensity (a.u.)
13,GATATTCAATCACCACATATGCCTTGTTTATTAGTATTACCGGAGTCACCTAGTGCAG,8630 fluorescence intensity (a.u.)
14,CTGACAATCACACACACGACAATGCACGCACGCGCACAACCGGAGTCACCTAGTGCAG,8390 fluorescence intensity (a.u.)
15,CTCTCGACGGCTCTCTCCTCTCCGTCTGTCTATAGCTACTCGGAGTCACCTAGTGCAG,10500 fluorescence intensity (a.u.)
16,CTTTCTTCTGTGTGGTGGGTTTTAGCCGGTTTCTCGCAATCGGAGTCACCTAGTGCAG,18400 fluorescence intensity (a.u.)
17,GAGTATAGCTGGGTGGGGTAGTAACCCATTCGGAAAACCCCGGAGTCACCTAGTGCAG,9710 fluorescence intensity (a.u.)
18,TCCTACGTTTTCTCAATCCTGTGATTCAAAAGGGCCCTTACGGAGTCACCTAGTGCAG,8790 fluorescence intensity (a.u.)
19,CTATCTTCTCCATTCATCCCATACTCTCCCACCCACGTTCCGGAGTCACCTAGTGCAG,9210 fluorescence intensity (a.u.)
20,GGCCCACACCACCTGGATACCGAAACGCCCTCGGGACGATCGGAGTCACCTAGTGCAG,8100 fluorescence intensity (a.u.)
21,AAAGTACTGTTAGATATTCATGGTCAAGCCTCGTTTTTTTCGGAGTCACCTAGTGCAG,9720 fluorescence intensity (a.u.)
